No constants are given. Whether binding was seen depends on the method and setting. Binding seen in cells or lysates may run through a third protein. Here binding means that the protein was enriched with, or labelled near, the bait; the list need not be complete. For part of these data: No binding means not detected with the bait.
How the values were obtained:
[1] = biological target: GFP-pVHL213 expressed in fission yeast (human) (UniProt P40337); assay: affinity purification with mass spectrometry; GFP-Trap MA beads on whole cell lysates of fission yeast expressing GFP-pVHL213 or GFP (20 mM Tris HCl pH 7.5, 150 mM NaCl, 2 mM EDTA, 0.5% Nonidet P40), 90 min at 4 C; on-bead digestion, LC-MS/MS
[2] = biological target: pVHL172-BirA(R118G)-HA fusion protein (human) (UniProt P40337); assay: proximity labelling; BioID with Western blot: VHL-BirA(R118G)-HA baits or BirA alone expressed in HEK293 and HeLa cells, biotin in the medium; RIPA lysate; streptavidin-Sepharose capture; bound fraction blotted
[3] = biological target: pVHL213-BirA(R118G)-HA fusion protein (human) (UniProt P40337); assay: as above
BirA(R118G)-HA [4] = biological target: BirA(R118G)-HA (UniProt P06709); assay: proximity labelling; BioID with Western blot in 786-O cells: VHL-BirA(R118G)-HA baits or BirA alone, streptavidin-Sepharose capture; bound fraction blotted (S1 Fig)
[5] = biological target: pVHL213-BirA(R118G)-HA fusion protein (human) (UniProt P40337); assay: as above
[6] = biological target: pVHL213-BirA(R118G)-HA fusion protein (human) (UniProt P40337); assay: proximity labelling; BioID with truncated VHL-BirA constructs in HeLa and 786-O cells; blots quantified as biotinylated prefoldin / pVHL expression level, full-length VHL213-BirA set as 1 (Fig 1C)
BirA(R118G)-HA [7] = biological target: BirA(R118G)-HA (UniProt P06709); assay: proximity labelling; BioID with Western blot: VHL-BirA(R118G)-HA baits or BirA alone expressed in HEK293 and HeLa cells, biotin in the medium; RIPA lysate; streptavidin-Sepharose capture; bound fraction blotted
[8] = biological target: VHL213mut-BirA(R118G)-HA fusion protein (human) (UniProt P40337); assay: as above
[9] = biological target: pVHL213-BirA(R118G)-HA fusion protein (human) (UniProt P40337); assay: proximity labelling; BioID with mass spectrometry: VHL-BirA(R118G)-HA baits expressed in HEK293 cells, biotin in the medium from 4 to 24 h after transfection; RIPA lysate; biotinylated proteins captured on streptavidin-Sepharose beads; on-bead digestion, LC-MS/MS, LFQ intensities
[10] = biological target: pVHL172-BirA(R118G)-HA fusion protein (human) (UniProt P40337); assay: as above

Amino acid sequences for entries named in this document (tags omitted). A change or cut given only in a name is not applied to a line headed by its entry.
UniProt P40337: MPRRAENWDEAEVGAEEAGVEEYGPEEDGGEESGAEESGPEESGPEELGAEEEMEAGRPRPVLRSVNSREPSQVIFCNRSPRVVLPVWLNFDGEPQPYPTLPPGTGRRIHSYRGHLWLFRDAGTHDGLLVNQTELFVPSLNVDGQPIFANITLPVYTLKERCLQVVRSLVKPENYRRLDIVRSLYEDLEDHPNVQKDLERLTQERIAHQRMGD
UniProt P06709: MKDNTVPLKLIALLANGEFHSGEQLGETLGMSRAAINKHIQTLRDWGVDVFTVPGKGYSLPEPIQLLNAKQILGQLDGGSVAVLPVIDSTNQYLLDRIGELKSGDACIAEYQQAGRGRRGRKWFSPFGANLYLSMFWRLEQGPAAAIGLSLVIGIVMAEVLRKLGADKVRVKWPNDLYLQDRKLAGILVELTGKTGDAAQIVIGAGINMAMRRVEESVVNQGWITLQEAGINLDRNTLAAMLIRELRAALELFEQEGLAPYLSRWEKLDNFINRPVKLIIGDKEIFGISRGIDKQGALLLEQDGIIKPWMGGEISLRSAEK
UniProt P04406: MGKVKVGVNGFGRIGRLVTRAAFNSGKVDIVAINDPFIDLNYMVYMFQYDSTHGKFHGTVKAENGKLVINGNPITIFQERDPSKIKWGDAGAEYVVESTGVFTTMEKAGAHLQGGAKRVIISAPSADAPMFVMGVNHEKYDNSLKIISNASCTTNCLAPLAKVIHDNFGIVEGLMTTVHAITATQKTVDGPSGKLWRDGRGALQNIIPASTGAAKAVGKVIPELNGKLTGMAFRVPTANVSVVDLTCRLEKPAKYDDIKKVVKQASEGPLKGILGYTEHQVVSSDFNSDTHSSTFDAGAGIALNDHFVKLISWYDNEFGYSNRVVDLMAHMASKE
UniProt O74752: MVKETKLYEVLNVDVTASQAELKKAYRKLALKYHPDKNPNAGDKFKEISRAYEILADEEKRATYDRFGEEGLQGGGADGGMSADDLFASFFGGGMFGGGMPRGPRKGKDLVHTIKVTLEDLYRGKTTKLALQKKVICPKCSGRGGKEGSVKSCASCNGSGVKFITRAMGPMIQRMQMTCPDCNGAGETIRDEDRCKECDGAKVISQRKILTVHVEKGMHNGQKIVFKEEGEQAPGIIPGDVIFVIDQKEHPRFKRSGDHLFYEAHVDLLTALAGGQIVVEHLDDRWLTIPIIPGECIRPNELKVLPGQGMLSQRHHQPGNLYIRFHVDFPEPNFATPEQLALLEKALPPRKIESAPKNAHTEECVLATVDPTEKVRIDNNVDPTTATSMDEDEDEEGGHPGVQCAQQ
UniProt Q10265: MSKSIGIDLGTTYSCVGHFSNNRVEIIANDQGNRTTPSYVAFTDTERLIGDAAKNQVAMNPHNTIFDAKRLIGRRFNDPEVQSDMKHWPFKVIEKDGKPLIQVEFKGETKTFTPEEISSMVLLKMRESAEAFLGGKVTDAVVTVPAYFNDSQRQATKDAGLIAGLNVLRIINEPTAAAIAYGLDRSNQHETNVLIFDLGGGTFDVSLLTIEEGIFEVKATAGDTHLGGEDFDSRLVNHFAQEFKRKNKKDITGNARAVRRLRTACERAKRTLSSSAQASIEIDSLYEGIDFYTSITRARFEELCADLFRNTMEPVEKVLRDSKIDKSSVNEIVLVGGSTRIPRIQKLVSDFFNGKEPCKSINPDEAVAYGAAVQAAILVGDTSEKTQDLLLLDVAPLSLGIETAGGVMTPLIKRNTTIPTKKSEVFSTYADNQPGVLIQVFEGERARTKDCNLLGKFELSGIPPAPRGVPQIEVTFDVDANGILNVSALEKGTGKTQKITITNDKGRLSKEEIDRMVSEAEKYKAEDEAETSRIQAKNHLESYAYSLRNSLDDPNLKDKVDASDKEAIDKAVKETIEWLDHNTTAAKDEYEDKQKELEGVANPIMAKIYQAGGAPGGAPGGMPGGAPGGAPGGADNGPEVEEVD
UniProt Q99471: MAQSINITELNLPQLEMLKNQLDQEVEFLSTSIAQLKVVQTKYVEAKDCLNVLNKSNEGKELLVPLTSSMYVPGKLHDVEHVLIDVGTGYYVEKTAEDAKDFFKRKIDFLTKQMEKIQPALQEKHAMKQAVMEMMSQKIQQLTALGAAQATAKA
UniProt O15212: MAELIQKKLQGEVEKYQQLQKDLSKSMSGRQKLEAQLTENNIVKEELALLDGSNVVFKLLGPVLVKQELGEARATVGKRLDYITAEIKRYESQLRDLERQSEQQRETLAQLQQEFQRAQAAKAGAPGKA
UniProt O59855: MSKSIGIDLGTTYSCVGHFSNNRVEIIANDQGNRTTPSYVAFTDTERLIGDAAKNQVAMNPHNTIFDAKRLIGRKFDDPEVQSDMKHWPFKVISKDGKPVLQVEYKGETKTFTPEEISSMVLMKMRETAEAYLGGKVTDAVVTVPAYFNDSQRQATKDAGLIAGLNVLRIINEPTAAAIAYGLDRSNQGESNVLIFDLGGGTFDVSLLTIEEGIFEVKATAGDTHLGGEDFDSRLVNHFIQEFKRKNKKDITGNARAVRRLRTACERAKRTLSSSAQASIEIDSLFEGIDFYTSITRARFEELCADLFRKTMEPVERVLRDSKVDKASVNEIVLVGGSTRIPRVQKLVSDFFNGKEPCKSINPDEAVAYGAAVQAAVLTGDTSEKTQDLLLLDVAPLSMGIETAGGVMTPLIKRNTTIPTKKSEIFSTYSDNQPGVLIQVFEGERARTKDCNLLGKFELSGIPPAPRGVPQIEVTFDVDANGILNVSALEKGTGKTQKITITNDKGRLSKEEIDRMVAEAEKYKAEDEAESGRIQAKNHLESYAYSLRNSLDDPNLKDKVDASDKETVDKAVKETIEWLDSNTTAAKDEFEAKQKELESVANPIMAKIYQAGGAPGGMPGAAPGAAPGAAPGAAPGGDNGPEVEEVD
UniProt P50990: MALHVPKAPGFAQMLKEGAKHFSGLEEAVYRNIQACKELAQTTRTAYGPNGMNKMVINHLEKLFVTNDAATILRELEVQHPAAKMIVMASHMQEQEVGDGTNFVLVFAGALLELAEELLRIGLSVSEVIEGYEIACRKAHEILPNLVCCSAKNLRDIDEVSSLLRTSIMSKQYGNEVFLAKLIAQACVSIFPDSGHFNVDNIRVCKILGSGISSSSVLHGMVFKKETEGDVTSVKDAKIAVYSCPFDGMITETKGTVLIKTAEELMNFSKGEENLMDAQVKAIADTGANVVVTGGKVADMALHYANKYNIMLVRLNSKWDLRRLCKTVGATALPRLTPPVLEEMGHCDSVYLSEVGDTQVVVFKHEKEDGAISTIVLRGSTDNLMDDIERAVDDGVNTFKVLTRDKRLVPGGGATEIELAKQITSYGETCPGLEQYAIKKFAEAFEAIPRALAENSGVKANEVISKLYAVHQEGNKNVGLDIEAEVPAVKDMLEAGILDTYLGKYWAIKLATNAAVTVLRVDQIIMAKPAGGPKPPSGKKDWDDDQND
UniProt P27361: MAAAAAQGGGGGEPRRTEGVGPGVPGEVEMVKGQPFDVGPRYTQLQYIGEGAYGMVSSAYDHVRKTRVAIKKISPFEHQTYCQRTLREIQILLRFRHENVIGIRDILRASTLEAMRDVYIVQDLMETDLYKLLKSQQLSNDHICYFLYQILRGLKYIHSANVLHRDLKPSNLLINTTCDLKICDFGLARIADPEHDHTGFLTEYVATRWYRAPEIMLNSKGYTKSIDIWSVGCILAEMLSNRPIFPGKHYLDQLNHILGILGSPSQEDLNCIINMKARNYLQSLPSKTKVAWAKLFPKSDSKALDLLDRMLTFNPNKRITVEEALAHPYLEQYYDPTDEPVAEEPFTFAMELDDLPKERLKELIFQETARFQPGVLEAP
UniProt O60925: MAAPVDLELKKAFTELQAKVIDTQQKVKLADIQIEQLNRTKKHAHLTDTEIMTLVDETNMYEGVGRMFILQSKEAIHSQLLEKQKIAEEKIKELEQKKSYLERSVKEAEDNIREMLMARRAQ
UniProt Q9UHV9: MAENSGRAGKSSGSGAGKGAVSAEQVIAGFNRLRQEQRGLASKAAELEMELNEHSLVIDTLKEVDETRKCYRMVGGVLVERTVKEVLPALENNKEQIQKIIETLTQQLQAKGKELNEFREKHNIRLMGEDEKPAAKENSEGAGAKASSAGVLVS
UniProt Q9NQP4: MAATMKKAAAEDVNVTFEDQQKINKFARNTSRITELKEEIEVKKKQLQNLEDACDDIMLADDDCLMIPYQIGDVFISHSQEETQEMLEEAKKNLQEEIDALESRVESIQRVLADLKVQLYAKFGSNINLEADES
UniProt P48643: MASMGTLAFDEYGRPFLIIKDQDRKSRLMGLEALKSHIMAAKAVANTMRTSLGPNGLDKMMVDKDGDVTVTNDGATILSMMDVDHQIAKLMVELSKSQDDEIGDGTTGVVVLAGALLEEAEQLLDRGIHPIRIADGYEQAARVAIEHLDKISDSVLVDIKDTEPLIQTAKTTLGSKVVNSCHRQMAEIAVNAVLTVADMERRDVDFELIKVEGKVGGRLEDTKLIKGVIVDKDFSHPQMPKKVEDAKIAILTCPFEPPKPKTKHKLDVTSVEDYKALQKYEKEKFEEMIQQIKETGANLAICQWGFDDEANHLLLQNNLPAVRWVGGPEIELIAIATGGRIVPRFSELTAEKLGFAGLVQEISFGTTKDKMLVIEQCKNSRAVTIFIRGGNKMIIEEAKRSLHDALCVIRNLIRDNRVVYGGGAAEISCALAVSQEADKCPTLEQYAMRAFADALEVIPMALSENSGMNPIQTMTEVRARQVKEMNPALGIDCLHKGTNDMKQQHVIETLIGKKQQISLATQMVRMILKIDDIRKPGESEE
UniProt Q99832: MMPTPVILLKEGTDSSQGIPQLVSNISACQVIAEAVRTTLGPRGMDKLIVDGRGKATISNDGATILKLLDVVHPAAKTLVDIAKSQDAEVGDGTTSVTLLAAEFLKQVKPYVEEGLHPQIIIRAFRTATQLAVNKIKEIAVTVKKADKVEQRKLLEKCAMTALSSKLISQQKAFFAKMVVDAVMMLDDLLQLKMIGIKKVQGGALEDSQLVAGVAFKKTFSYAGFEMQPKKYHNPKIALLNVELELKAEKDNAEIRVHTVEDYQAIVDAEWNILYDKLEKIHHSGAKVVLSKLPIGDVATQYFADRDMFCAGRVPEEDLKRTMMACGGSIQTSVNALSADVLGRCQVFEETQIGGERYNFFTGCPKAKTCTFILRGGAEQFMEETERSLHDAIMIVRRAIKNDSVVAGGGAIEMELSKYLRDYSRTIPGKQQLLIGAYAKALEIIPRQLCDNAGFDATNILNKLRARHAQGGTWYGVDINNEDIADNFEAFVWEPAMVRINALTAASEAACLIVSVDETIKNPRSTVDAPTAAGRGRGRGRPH
UniProt P28482: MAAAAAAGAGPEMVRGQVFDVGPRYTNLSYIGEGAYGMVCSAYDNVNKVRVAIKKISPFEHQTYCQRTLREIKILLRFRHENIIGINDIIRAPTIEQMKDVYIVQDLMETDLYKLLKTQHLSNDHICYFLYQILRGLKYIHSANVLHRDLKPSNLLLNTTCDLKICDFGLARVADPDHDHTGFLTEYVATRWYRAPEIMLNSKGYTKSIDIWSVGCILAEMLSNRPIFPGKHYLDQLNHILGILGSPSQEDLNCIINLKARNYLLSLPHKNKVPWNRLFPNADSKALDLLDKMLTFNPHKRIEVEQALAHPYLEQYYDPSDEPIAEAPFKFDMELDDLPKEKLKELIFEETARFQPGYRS

Substance | binding [3] | binding [9] | binding [10] | further results
Cdc48 ATPase (from UniProt Q9P3A7 1-809) | – | – | – | binding [1]: binds
GAPDH (from UniProt P04406 1-335) | no binding | – | – | binding [2]: no binding
Hsp40/Mas5 (from UniProt O74752 1-407) | – | – | – | binding [1]: binds
Hsp70/Ssa1 (from UniProt Q10265 1-644) | – | – | – | binding [1]: binds
Prefoldin subunit 5 (from UniProt Q99471 1-154) | binds | binds | – | binding [8]: binds weakly
Prefoldin subunit 6 (from UniProt O15212 1-129) | – | binds | no binding | –
Ssa2 Hsp70 (from UniProt O59855 1-647) | – | – | – | binding [1]: binds
T-complex protein 1 subunit theta (from UniProt P50990 1-548) | – | binds | binds | –
p44 ERK (ERK1) (from UniProt P27361 1-379) | no binding | – | – | binding [2]: no binding

More lines, main results first:

binding [3] | binding [9] | binding [10] | Substance | further results
binds | binds | – | Prefoldin subunit 1 (from UniProt O60925 1-122) | binding (BirA(R118G)-HA [4]): no binding; binding [5]: binds; binding [6]: binds; binding (BirA(R118G)-HA [7]): no binding; binding [8]: binds weakly
binds | binds | binds weakly | Prefoldin subunit 2 (from UniProt Q9UHV9 1-154) | binding (BirA(R118G)-HA [7]): no binding; binding [2]: binds weakly
binds | binds | – | Prefoldin subunit 3 (from UniProt P61758-1 1-197) | binding (BirA(R118G)-HA [4]): no binding; binding [5]: binds; binding [6]: binds; binding (BirA(R118G)-HA [7]): no binding; binding [8]: binds weakly
– | binds | no binding | Prefoldin subunit 4 (from UniProt Q9NQP4 1-134) | –
– | binds | binds | T-complex protein 1 subunit epsilon (from UniProt P48643 1-541) | –
– | binds | binds | T-complex protein 1 subunit eta (from UniProt Q99832 1-543) | –
no binding | – | – | p42 ERK (ERK2) (from UniProt P28482 1-360) | binding [2]: no binding

Reference: paper PMC7660911
